Results are given in words; binding and its absence hold for the method and conditions named. In cells and extracts the contact can be indirect. These calls come from enrichment with a bait or labelling near it, and not all partners need be listed.
Biological target: MBP-KPNA7 (wild type) (human) (UniProt A9QM74)
Assay: affinity purification with mass spectrometry; 40 μg MBP-KPNA7 (heavy) or MBP (light) on magnetic amylose resin, SILAC nuclear lysates of iPSC-derived neurons, with 0.5 μM his-Importin β; 3 hours at 4 °C; LC-MS/MS; only the target purified

The chains behind the UniProt entries cited, without tags or fusion partners.
UniProt A9QM74: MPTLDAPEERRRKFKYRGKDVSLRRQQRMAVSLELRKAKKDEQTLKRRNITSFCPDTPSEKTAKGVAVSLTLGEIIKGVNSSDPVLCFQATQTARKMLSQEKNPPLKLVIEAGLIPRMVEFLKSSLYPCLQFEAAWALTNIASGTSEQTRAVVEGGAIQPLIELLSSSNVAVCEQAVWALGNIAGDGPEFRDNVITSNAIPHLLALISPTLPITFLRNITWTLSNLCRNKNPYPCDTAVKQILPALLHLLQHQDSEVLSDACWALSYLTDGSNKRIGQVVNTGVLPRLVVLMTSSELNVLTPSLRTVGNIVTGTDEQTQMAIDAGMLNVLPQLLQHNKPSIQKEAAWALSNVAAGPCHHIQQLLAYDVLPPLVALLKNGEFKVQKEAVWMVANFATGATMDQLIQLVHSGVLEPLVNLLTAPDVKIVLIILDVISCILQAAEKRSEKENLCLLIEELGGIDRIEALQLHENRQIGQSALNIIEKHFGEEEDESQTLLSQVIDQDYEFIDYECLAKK

binding: binds
B1: hnRNP R (endogenous, iPSC-derived neurons) (protein, UniProt O43390 1-633)
chain: MANQVNGNAVQLKEEEEPMDTSSVTHTEHYKTLIEAGLPQKVAERLDEIFQTGLVAYVDLDERAIDALREFNEEGALSVLQQFKESDLSHVQNKSAFLCGVMKTYRQREKQGSKVQESTKGPDEAKIKALLERTGYTLDVTTGQRKYGGPPPDSVYSGVQPGIGTEVFVGKIPRDLYEDELVPLFEKAGPIWDLRLMMDPLSGQNRGYAFITFCGKEAAQEAVKLCDSYEIRPGKHLGVCISVANNRLFVGSIPKNKTKENILEEFSKVTEGLVDVILYHQPDDKKKNRGFCFLEYEDHKSAAQARRRLMSGKVKVWGNVVTVEWADPVEEPDPEVMAKVKVLFVRNLATTVTEEILEKSFSEFGKLERVKKLKDYAFVHFEDRGAAVKAMDEMNGKEIEGEEIEIVLAKPPDKKRKERQAARQASRSTAYEDYYYHPPPRMPPPIRGRGRGGGRGGYGYPPDYYGYEDYYDDYYGYDYHDYRGGYEDPYYGYDDGYAVRGRGGGRGGRGAPPPPRGRGAPPPRGRAGYSQRGAPLGPPRGSRGGRGGPAQQQRGRGSRGSRGNRGGNVGGKRKADGYNQPDSKRRQTNNQQNWGSQPIAQQPLQQGGDYSGNYGYNNDNQEFYQDTYGQQWK
